Reference: PubChem BioAssay AID651768 (National Center for Advancing Translational Sciences (NCATS), 2012)
About 1,700 (0.47%) of roughly 360,000 compounds were called active. Inconclusive results, whose numbers are uncertain, are shown with a selection of clear calls. Calls follow the shape of the dose curve; as a rule, active = well fitted inhibition curve with a large enough effect; inconclusive = small, poorly fitted or top-dose-only effect; inactive = no such curve, though single readings can be large or run the other way. Where the call is inconclusive, the potency comes from a doubtful curve fit.

Amino acid sequences for entries named in this document (tags omitted).
UniProt Q14191, whole entry, looked up: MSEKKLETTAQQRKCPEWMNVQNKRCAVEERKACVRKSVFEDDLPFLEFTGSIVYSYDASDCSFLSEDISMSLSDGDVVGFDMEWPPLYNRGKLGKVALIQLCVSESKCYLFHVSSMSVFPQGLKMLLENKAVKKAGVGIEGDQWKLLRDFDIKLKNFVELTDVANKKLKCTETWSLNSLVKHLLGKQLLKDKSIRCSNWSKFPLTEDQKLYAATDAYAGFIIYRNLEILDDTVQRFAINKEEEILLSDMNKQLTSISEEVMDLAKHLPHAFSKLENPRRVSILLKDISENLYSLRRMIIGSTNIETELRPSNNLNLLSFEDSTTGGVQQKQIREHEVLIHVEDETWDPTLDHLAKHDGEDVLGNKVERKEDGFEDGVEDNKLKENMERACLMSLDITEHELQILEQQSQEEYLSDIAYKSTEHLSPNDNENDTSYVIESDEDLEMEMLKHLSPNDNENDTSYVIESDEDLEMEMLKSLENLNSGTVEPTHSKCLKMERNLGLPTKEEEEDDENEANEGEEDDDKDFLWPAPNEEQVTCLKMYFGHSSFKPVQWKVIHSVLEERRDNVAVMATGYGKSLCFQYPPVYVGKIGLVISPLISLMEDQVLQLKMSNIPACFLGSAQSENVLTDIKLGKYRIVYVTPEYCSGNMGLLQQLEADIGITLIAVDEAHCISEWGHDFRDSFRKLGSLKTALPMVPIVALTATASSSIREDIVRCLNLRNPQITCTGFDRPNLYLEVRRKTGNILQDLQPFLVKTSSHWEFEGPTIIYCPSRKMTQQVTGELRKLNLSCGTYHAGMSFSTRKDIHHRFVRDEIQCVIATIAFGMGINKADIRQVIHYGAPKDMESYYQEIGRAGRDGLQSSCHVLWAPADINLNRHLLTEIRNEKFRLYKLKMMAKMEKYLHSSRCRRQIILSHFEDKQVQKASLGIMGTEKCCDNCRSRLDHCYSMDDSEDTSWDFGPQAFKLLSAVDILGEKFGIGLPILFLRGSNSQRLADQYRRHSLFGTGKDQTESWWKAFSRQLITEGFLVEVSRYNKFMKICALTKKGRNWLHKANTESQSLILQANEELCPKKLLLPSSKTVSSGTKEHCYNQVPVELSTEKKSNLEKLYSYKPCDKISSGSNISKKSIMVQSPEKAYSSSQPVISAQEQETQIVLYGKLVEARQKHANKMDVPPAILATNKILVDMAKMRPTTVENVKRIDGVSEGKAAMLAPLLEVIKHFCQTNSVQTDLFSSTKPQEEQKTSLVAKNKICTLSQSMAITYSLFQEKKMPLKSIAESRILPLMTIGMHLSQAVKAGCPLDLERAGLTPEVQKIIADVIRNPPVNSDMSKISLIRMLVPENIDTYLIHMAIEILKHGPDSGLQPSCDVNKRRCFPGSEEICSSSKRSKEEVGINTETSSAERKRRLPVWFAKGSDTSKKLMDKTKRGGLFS

What follows are compounds tested against Bifunctional 3'-5' exonuclease/ATP-dependent helicase WRN (Homo sapiens) (UniProt Q14191) (assay: qHTS for Inhibitors of WRN Helicase). Details: WRN helicase unwinding, fluorescent forked duplex, kinetic; activity change, negative = inhibition: at 114 µM (top of the series) unless noted.
How it was run: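 Fluorescence dequenching readout, ex 525 nm/em 598 nm, kinetic mode: forked duplex DNA (100 nM final) with adjacent fluorophore and quencher unwound by WRN (20 nM final) with 2 mM ATP. Compound preincubation 15 min, room temperature.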
% is scaled to controls: 0 for no effect and ±100 for the full control effect; potency is read from the fitted curve at half-maximal effect.
Also: nearly all actives have a fitted effect of over 55% in size.

SMILES | Potency | activity change, negative = inhibition
O=C(COC(=O)c1cc(-c2cccc3ccccc23)nc2ccccc12)NC1CCS(=O)(=O)C1 (centres undefined) | active: 79.4 µM | 
COc1ccccc1CN(C)CC(=O)Nc1cccc(S(=O)(=O)N2CCCC2)c1 | inconclusive: 22.4 µM [inhibitor, full curve] | 
CCOc1ccc(OCC)c(NC(=O)CN2CCN(c3cccc(C)c3)C(C)C2)c1 (centres undefined) | inconclusive: 25.1 µM [inhibitor, partial curve] | 
COc1cc(OC)cc(C(=O)NNC(=O)c2ccc(S(=O)(=O)N3CC(C)OC(C)C3)cc2)c1 (centres undefined) | inactive | 
C/C(=N/Nc1ccc(C(=O)O)cc1)c1ccc(O)c(O)c1O | inconclusive: 35.5 µM [inhibitor, partial curve] | 
Cc1c(O)ccc2c(CN3CCN(Cc4ccccc4)CC3)cc(=O)oc12 | inactive | 
Cc1ccc(CNC(=O)CSCc2cccc(F)c2)cc1 | inactive | 
O=C(CSc1nnc(Nc2ccccc2)s1)NCc1cccs1 | inconclusive: 10 µM [inhibitor, partial curve] | 
COc1ccc(NC(=O)CSc2nnc(C3CC3)n2C)cc1 | inconclusive: 79.4 µM [inhibitor, single point] | 
CN(C)C(=O)c1cc(-c2ccccc2)no1 | inactive | 
CCN1C(=O)/C(=C2/Sc3ccccc3N2CCCS(=O)(=O)O)SC1=S | inconclusive: 70.8 µM [inhibitor, single point] | 
C=CCn1c(SCC(=O)NCCOC)nc2scc(-c3ccco3)c2c1=O | inconclusive: 70.8 µM [inhibitor, partial curve] | 
COc1ccc2[nH]c3c(NCc4ccco4)ncnc3c2c1 | inactive | 
Cc1cc(C)nc(NS(=O)(=O)c2ccc(NC(=O)CSc3ncn[nH]3)cc2)n1 | inactive | 
Oc1ccc(-c2csc(-c3ccccc3)n2)cc1O | inconclusive: 39.8 µM [inhibitor, partial curve] | 
CC(C)NC(=O)CC(=O)N/N=C/c1cccs1 | inactive | 
CCN1CCC(O)(/C=C/c2ccc(C(C)C)cc2)C(C(=O)/C=C/c2ccc(C(C)C)cc2)C1 (centres undefined) | active: 15.8 µM | 
N#C/C(=C\c1ccc(O)c(O)c1)C(=O)Nc1ccccc1 | inconclusive: 39.8 µM [inhibitor, full curve] | 
COc1cc(/C=C2/CCCC(C(=O)C(F)(F)F)=C2O)ccc1O | inconclusive: 89.1 µM [inhibitor, single point] | 
CCc1ccc(Nc2nnc(SC3CCOC3=O)s2)cc1 (centres undefined) | inconclusive: 35.5 µM [inhibitor, single point] | 
O=C1c2ccccc2C(=O)C12OC2c1cccc2ccccc12 (centres undefined) | inactive | 
C#CCOCCOCCOCCNc1nc(N2CCN(C(=O)CCCCCCCCCCNC(=O)[C@@H](CCC(=O)O)n3cc(CCCCCN)nn3)CC2)nc(N2CCN(C(=O)CCCCCCCCCCNC(=O)[C@H](CO)n3cc(CCCSC)nn3)CC2)n1 | inactive | 
O=C(/C=C/c1ccco1)Nc1scc(-c2ccccc2)c1C(=O)O | inconclusive: 50.1 µM [inhibitor, partial curve] | 
CCOC(=O)[C@]12CCC=C1N(Cc1ccco1)C(=O)[C@H](CC(=O)NCCCOC)C2 | inactive | 
O=C(NCCN1CCOCC1)C(=O)NCC1OCCN1S(=O)(=O)c1ccc(Br)cc1 (centres undefined) | inconclusive: 100 µM [inhibitor, single point] | 

SMILES | Potency | activity change, negative = inhibition
O=S(=O)(O)c1ccc(O)c2cc(Nc3ccccc3)ccc12 | active: 0.947 µM | 
CS(=O)(=O)N1N=C(c2ccccc2)CC1c1ccc2c(c1)OCO2 (centres undefined) | inconclusive: 28.2 µM [inhibitor, single point] | 
COc1cc([N+](=O)[O-])cc(/C=C2/SC(=S)N(Cc3ccccc3)C2=O)c1O | active: 2.67 µM | 
CCN(CC)c1ccc2cc(-c3nc4ccccc4n3C)c(=O)oc2c1 | inactive | 
COc1ccc(S(=O)(=O)NCCSCc2ccco2)cc1OC |  | inactive: -2.41% [at 11.6 µM]
CCc1ccc[n+](-c2[nH]c(=O)sc2/C=N/NC([S-])=Nc2ccccc2)c1 | inconclusive: 79.4 µM [inhibitor, single point] | 
Nn1c(SCC(=O)NC2CCCCCC2)nnc1-c1ccco1 | inactive | 
Cc1ccc2nc(NC(=O)c3cc(-c4ccco4)nc4ccccc34)sc2c1 | inactive | 
O=C1NC(=S)SC1=Cc1ccccn1 | inactive | 
CC1=[N+](C)c2c(ccc3cccnc23)C1(C)C | active: 56.2 µM | 
O=c1c(C=Nc2cccc(C(F)(F)F)c2)c[nH]n1-c1cccc(Cl)n1 | inconclusive: 50.1 µM [inhibitor, partial curve] | 
N#C/C(=C\c1ccc(-c2ccccc2[N+](=O)[O-])o1)C(=O)Nc1nc(-c2cccs2)cs1 | inconclusive: 56.2 µM [inhibitor, partial curve] | 
COC(=O)Cn1c(=NC(=O)c2cc(OC)c(OC)c(OC)c2)sc2cc(OC)ccc21 | inconclusive: 31.6 µM [inhibitor, single point] | 
Oc1ccc(C2CNCCc3c2cc(O)c(O)c3Cl)cc1 (centres undefined) | inconclusive: 28.2 µM [inhibitor, partial curve] | 
CCN1CC(CNC(=O)c2ccc3nc(Cc4cccc(Cl)c4)oc3c2)CC1=O (centres undefined) | inactive | 
O=c1oc2c3c4c(cc2c2c1CCC2)OCCN4CCC3 | inconclusive: 50.1 µM [inhibitor, partial curve] | 
Oc1c(C(c2ccccc2)N2CCOCC2)ccc2ccccc12 (centres undefined) | active: 28.2 µM | 
CCCCN1C(=O)/C(=C/C=C2\Oc3ccccc3N2CC)SC1=S | active: 50.1 µM | 
CCn1c(Cl)c(C=O)s/c1=N\S(=O)(=O)c1ccccc1 | active: 39.8 µM | 
COCC1CCCN(Cc2cn[nH]c2-c2cc3ccccc3o2)C1 (centres undefined) | inconclusive: 89.1 µM [inhibitor, single point] | 
N#CC1=C(N)C(C#N)(C#N)C(c2ccc[nH]2)C2CCCC=C12 (centres undefined) | inconclusive: 50.1 µM [inhibitor, partial curve] | 
O=C(NCC(c1ccco1)N1CCCCC1)c1ccc(NS(=O)(=O)c2ccc(F)cc2)cc1 (centres undefined) | inconclusive: 89.1 µM [inhibitor, single point] | 
CCN1CCN(C(=S)Nc2ccc3nc(N4CCN(CC)CC4)cc(C)c3c2)CC1 | inconclusive: 89.1 µM [inhibitor, single point] | 
N#Cc1ccc(OCC(=O)Nc2ccncc2)cc1 | inconclusive: 89.1 µM [inhibitor, single point] | 
Cc1ccnc(NS(=O)(=O)c2ccc(NC(=O)C3CCCCC3)cc2)n1 | inactive | 

SMILES | Potency | activity change, negative = inhibition
Cn1c(=O)cc(SCC(=O)NCCC2=CCCCC2)c2ccc(Cl)cc21 | inactive | 
CSc1ccccc1OCc1cc(C(=O)N2CCN(Cc3nccn3C)CC2)no1 | inconclusive: 79.4 µM [inhibitor, single point] | 
CC1=NN(c2ccccc2)C(=O)/C1=C/c1c(O)n(-c2ccc(F)c(Cl)c2)[nH]c1=O | inconclusive: 50.1 µM [inhibitor, partial curve] | 
N#C/C(=C\c1ccccc1O)C(=O)Nc1cccnc1 |  | inactive: 3.96% [at 11.6 µM]
Cc1ccc(NC2CCCN(C(=O)c3cnsn3)C2)cc1C (centres undefined) | inactive | 
C/C(=N\NC(=O)c1ccccc1)c1cc2cc([N+](=O)[O-])ccc2oc1=O | inconclusive: 35.5 µM [inhibitor, partial curve] | 
CCC(C(=O)N1CCN(c2ncccn2)CC1)c1ccccc1 (centres undefined) | inactive | 
CNC(=O)/C(C#N)=c1\s/c(=C/C(=O)OC)c(=O)n1-c1ccccc1 | inactive | 
Cc1cc(C(=O)OCC(=O)NCc2ccccc2)c2ccccc2n1 | inconclusive: 28.2 µM [inhibitor, full curve] | 
COc1ccc(CN2C(=O)C(CC(=O)NC3CCCC3)CC(C(=O)N3CCOCC3)=C2C)cc1 (centres undefined) | inactive | 
Cc1cc(C)n2nc(S(=O)(=O)NC3CCCCC3)nc2n1 | inactive | 
CC(C)(Cc1ccccc1)NC(=O)C(=O)c1cn(CC(=O)N2CCOCC2)c2ccccc12 | inconclusive: 70.8 µM [inhibitor, single point] | 
O=C(O)CNC(=O)c1ccc(NC(=O)/C(=C/c2cccc([N+](=O)[O-])c2)NC(=O)c2ccco2)cc1 | inconclusive: 79.4 µM [inhibitor, single point] | 
O=C(COc1cc2oc(=O)c3c(c2cc1Cl)CCC3)NCc1ccccn1 | inactive | 
Cc1cc(=O)[nH]c(SCC(=O)C23CC4CC(CC(C4)C2)C3)c1C#N | inactive | 
CCC(=O)c1ccc(OCC(=O)Nc2nc(-c3cccnc3)cs2)cc1 | inconclusive: 79.4 µM [inhibitor, partial curve] | 
O=C1C=C(Nc2ccc(O)cc2)C(=O)c2ccccc21 | inconclusive: 50.1 µM [inhibitor, partial curve] | 
Cc1ccc(C(C[N+](=O)[O-])c2c(C)[nH]n(-c3ccccc3)c2=O)cc1 (centres undefined) | inconclusive: 39.8 µM [inhibitor, partial curve] | 
Cc1nn(-c2ccccc2)c2nc(=O)n(-c3ccccc3)cc12 | inconclusive: 79.4 µM [inhibitor, partial curve] | 
CCOC(=O)c1c(NC(=O)/C=C/C(=O)O)sc(C)c1-c1ccc(C(C)(C)C)cc1 | inactive | 
CC(=O)c1c(C)[nH]c(C(=O)COC(=O)c2cc(S(=O)(=O)N(C)c3ccccc3)ccc2Cl)c1C | inconclusive: 56.2 µM [inhibitor, partial curve] | 
CS(=O)(=O)c1ccc(-n2nnc3ccccc32)c([N+](=O)[O-])c1 | inactive | 
C=C(CC)C(=O)c1ccc(OCC(=O)O)c(Cl)c1Cl | inconclusive: 2.67 µM [inhibitor, partial curve] | 
Cc1ccc(C)c(N2CCN(S(=O)(=O)c3c(C)noc3C)CC2)c1 | inactive | 

5 compounds from above, ordered by molecular weight, smallest number first:
SMILES | Potency | activity change, negative = inhibition
C/C(=N\NC(=O)c1ccccc1)c1cc2cc([N+](=O)[O-])ccc2oc1=O | inconclusive: 35.5 µM [inhibitor, partial curve] | 
Cc1c(O)ccc2c(CN3CCN(Cc4ccccc4)CC3)cc(=O)oc12 | inactive | 
O=C(COc1cc2oc(=O)c3c(c2cc1Cl)CCC3)NCc1ccccn1 | inactive | 
O=C(NCC(c1ccco1)N1CCCCC1)c1ccc(NS(=O)(=O)c2ccc(F)cc2)cc1 (centres undefined) | inconclusive: 89.1 µM [inhibitor, single point] | 
O=C(O)CNC(=O)c1ccc(NC(=O)/C(=C/c2cccc([N+](=O)[O-])c2)NC(=O)c2ccco2)cc1 | inconclusive: 79.4 µM [inhibitor, single point] | 
